Primary screen of a compound library

Amino acid sequences for entries named in this document (tags omitted). Residues count along the entry.
UniProt P9WPC5, whole entry: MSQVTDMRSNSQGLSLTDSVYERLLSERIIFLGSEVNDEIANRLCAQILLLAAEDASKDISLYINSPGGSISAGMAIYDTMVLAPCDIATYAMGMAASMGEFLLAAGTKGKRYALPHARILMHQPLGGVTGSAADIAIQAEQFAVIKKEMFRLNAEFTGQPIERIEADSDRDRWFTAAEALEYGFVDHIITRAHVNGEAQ
UniProt P9WPC3, whole entry partner: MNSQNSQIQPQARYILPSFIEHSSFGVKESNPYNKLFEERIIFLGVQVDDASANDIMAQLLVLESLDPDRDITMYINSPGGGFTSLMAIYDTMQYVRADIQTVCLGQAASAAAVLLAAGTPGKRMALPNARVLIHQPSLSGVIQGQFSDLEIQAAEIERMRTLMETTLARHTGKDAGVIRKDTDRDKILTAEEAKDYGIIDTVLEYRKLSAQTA
UniProt Q8IDJ8, 1-583: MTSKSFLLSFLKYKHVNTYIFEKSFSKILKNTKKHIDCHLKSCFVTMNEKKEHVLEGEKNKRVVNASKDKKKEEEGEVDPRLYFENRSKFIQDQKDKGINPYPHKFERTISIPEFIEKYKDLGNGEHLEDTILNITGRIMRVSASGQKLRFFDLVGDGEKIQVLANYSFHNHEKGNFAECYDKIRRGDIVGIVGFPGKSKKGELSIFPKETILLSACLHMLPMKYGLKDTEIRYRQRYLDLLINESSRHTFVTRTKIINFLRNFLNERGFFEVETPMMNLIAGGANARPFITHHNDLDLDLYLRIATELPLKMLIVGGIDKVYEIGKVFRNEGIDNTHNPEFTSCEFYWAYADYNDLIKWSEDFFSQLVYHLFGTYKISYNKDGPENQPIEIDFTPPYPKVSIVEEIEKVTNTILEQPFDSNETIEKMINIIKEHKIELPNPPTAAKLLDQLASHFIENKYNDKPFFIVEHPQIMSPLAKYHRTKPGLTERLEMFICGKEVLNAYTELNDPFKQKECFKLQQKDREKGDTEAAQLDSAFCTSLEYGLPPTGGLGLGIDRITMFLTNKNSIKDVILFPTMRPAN

Data taken from ChEMBL document CHEMBL3988442, “University of Dundee, Small-Polar-MMV Screening Library” (2021).

Leishmania in macrophages: 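Cell assay of Leishmania donovani living inside macrophages; the read-out is not stated. Compounds at 30 µM. The record gives no direction; compounds that gave an IC50 in retests scored well above the rest, so higher reads as stronger inhibition. About 69,000 compounds were tested under these conditions; 1.5% (about 1,000) showed 50% or more at least once.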
ClpP1P2: 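Protease assay of ClpP1P2, read by the AMC dye that it sets free. Target: ClpP1P2, Mycobacterium tuberculosis (UniProt P9WPC5 and UniProt P9WPC3). Compounds at 50 µM. Direction is inferred from only a few compounds that gave an IC50; most scored high, so higher reads as stronger inhibition. Most other retested compounds had strongly negative values. Of about 69,000 compounds tested this way, about 10 (0.015%) reached 50% or more in at least one test.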
Toxoplasma: 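Assay of Toxoplasma gondii numbers, read through their beta-galactosidase reporter with a colour substrate. Compounds at 10 µM. The record gives no direction; the compounds picked for IC50 retests had high values, so higher reads as fewer parasites. Of about 67,000 compounds tested this way, about 260 (0.38%) reached 50% or more in at least one test.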
PfKRS1: 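Enzyme assay of the cytosolic lysyl-tRNA synthetase in 384-well plates, read by luminescence. Target: Lysine-tRNA ligase, Plasmodium falciparum 3D7 (UniProt Q8IDJ8). Tested at 30 µM. Higher reads as stronger inhibition, judged from the few compounds that gave an IC50. About 69,000 compounds were tested under these conditions; 0.071% (about 49) showed 50% or more at least once.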

Results are given as percent effect. How 0% and 100% were set is not recorded. Most values in the screen are low, and negative values occur. This is an unselected part of the compounds tested. A dash means the value is not listed here; it may have been measured.

structure,Leishmania in macrophages,ClpP1P2,Toxoplasma,PfKRS1
CNc1nccc(C2CCCCN2Cc2cnn3cccnc23)n1 (stereo unspecified),53.78,-3.473,2.013,-0.5536
O=C(c1ccc2[nH]ccc2c1)N1CCn2cc(CN3CCCC3)nc2C1,9.218,0.4866,-10.21,2.777
Cc1nn2cccnc2c1C(=O)NCc1ccnc(OCC2CC2)c1,17.39,-13.52,-12.93,-1.39
Nc1nc(CCC(=O)N2C[C@@H](CN3CCCC3)C[C@H](CO)C2)n[nH]1,20.85,-3.652,1.311,-0.9835
CC(C)N(C(=O)CN(C)C1CCc2ccccc21)C(C)C (stereo unspecified),40.65,-25.67,-27.98,-2.423
Cn1cc(CNC2CCc3c(ccc(=O)n3Cc3ccncc3)C2)cn1 (stereo unspecified),-,5.754,-,3.303
Cn1cc(C(=O)NCCCN2CCCCCC2=O)c(-c2cccnc2)n1,14.22,-9.168,3.308,3.849
CCC(O)CN1CCN(C(=O)c2sccc2C(C)C)CC1 (stereo unspecified),17.53,-4.374,-8.848,-1.259
COc1ccccc1C1CCN(C(=O)c2ncccc2OC(C)C)C1 (stereo unspecified),-13.68,-4.84,-0.2674,1.24
CCCS(=O)(=O)N1CCOC2(CCCN(c3ccccn3)C2)C1 (stereo unspecified),-,-11.85,-,-0.08476
Cc1cc(-c2cnc(N3CCNC(=O)C3)nc2-c2ccoc2C)on1,-4.022,-2.673,18.68,0.03803
CN(Cc1cnn(C)c1)C(=O)NCCc1ccc2c(c1)OCCO2,18.11,-15.55,3.827,-1.001
COc1ccc(-n2c(SCC(=O)O)nnc2-c2cn[nH]c2)cc1,-16.43,13.69,-2.829,-0.9166
COCCN1CCCC(c2nc3c([nH]2)CC(C)(C)CNC3=O)C1 (stereo unspecified),8.206,-15.28,-1.731,0.4163
CCn1ncnc1C(C)NC(=O)C1CCN(C(C)C)CC1 (stereo unspecified),5.618,9.303,-0.4785,5.435
O=C1N(Cc2cccc(F)c2)CCC12CCCN(c1ncc(F)cn1)C2 (stereo unspecified),-9.972,-8.597,23.79,1.606
c1cnn(CC2CCCN2Cc2ccc(-n3cccn3)cc2)c1 (stereo unspecified),16.34,-1.928,23.49,-0.6916
O=C(O)C(F)(F)F.[H][C@@]12CN(Cc3cc(C)cc(C)c3)C[C@]1([H])OCCN2CC(=O)N(C)C,30.13,-,-22.79,-
CCN1CC2(CC1=O)CN(Cc1cnn(C)c1)CCN(C(=O)N(C)C)C2 (stereo unspecified),-,11.69,-,2.434
CC(NC(=O)NCCCc1n[nH]c(N)c1C#N)c1ccccc1 (stereo unspecified),11.19,-0.6256,-,4.468
c1csc(CN2C[C@H]3CCC[C@@]3(COCC3CCOCC3)C2)n1,-,4.326,-,5.12
COc1ccc(Cl)cc1C(=O)N1CCOC2(CNCCOC2)C1 (stereo unspecified),29.76,-12.49,-0.4616,0.4163
COc1cccc(OCCNCc2ccccc2)c1.O=C(O)C(=O)O,19.46,-,20.16,-
CCCn1ncc(C(=O)N(C)Cc2cc(C3CC3)[nH]n2)c1C,0.1526,11.69,15.54,-3.563
CC1(C)CC1(C(=O)N1CC(c2cccnc2)C1)c1ccc(F)cc1 (stereo unspecified),-26.38,6.939,12.08,-5.113
COc1ncnc(N)c1CNCc1ccccc1-n1cccn1,1.692,18.65,-2.207,2.751
CCN1CCN(CC(=O)N2CCOC(Cc3ccc(OC)cc3)C2)CC1 (stereo unspecified),1.983,5.454,0.5408,0.5747
Cc1cccc(CN2CCC3(CCN(c4ccccn4)C3)C2=O)c1.O=C(O)C(F)(F)F (stereo unspecified),41.53,-,9.926,-
COC1CCN(S(=O)(=O)N2CCC3(CCCNC3=O)C2)CC1 (stereo unspecified),2.732,-1.81,12.09,4.62
Cc1ccc(NC(=O)CC2NC(N3CCc4ccccc43)=NC2=O)cc1 (stereo unspecified),9.21,-15.98,-2.713,3.931
Cc1cnc(C)c(N2CCN(CCCc3ccncc3)CC2)n1,14.04,-10.84,5.219,-8.632
CCN(C(=O)Nc1nccs1)C(C)c1cccc(O)c1 (stereo unspecified),-9.013,-5.6,-5.745,1.497
Cc1cnn(CC2CN(Cc3nc(-c4ccsc4)no3)CCO2)c1 (stereo unspecified),2.931,-18.63,6.123,-0.8256
Cc1cc(C(N)=O)c(N2C[C@@H](C)[C@@](C)(O)C2)nc1C,-9.557,-8.228,1.013,0.7088
Cc1ncccc1C(=O)Nc1ccc2ccn(CCN(C)C)c2c1,18.55,-2.301,3.196,2.932
COc1ccc(CN(C)C(=O)CSc2nnc(N)s2)c(OC)c1OC,28.05,4.612,1.408,-1.489
Cc1cc(CN(C)C(=O)NC(C)Cc2ccc(O)cc2)no1 (stereo unspecified),-15.36,-7.615,3.018,0.7579
NC(=O)C(Nc1ccc(Cl)cc1)c1ccc(F)cc1 (stereo unspecified),30.9,-3.873,22.38,5.545
Cn1cnnc1C1CCCN(C(=O)NCc2ccccn2)C1 (stereo unspecified),-0.2738,22.21,18.88,-0.6224
O=C(c1cc2c(s1)CCCC2)N1CCc2nc(C3CCCN3)ncc2C1 (stereo unspecified),-,15.58,-,-0.4224

Repeated from the top, 2 entries:

With CNc1nccc(C2CCCCN2Cc2cnn3cccnc23)n1 (stereo unspecified) the screen gave Leishmania in macrophages: 53.78%; ClpP1P2: -3.473%; Toxoplasma: 2.013%; PfKRS1: -0.5536%.
With O=C(c1ccc2[nH]ccc2c1)N1CCn2cc(CN3CCCC3)nc2C1 the screen gave Leishmania in macrophages: 9.218%; ClpP1P2: 0.4866%; Toxoplasma: -10.21%; PfKRS1: 2.777%.